Paper PMC12531871, “Indole-2-carboxamides Optimization for Antiplasmodial Activity” (ACS Bio & Med Chem Au, 2025)

Columns and labels:
P. falciparum Dd2 strain = assay: Antiplasmodial activity against resistant P. falciparum Dd2; type: cell-based, Plasmodium falciparum
P. falciparum K1 strain = assay: Antiplasmodial activity against resistant P. falciparum K1; type: cell-based, Plasmodium falciparum
[1] = tested on: P. falciparum Dd2 and K1 strains; settings: Dd2 and K1 related to 3D7
[2] = tested on: P. falciparum Dd2 (chloroquine resistance); assay: Effect of verapamil on inhibitory activity in P. falciparum Dd2; type: cell-based, Plasmodium falciparum; settings: for fold decrease of IC50 by verapamil in Dd2: 10 μM VP, Dd2 strain; for fold decrease of inhibitory activity (IC50 increase) in Dd2 versus 3D7: CQ-resistant Dd2 strain, without VP
[3] = ratio of IC50 resistant strain / NF54

| SMILES | IC50 Fold-shift Dd2/3D7 (P. falciparum Dd2 strain) | IC50 Fold-shift K1/3D7 (P. falciparum K1 strain) | fold-shifts in the IC50 values against the resistant strains [1] | fold decrease of IC50 by verapamil in Dd2 [2] [fold] | fold decrease of inhibitory activity (IC50 increase) in Dd2 versus 3D7 [2] [fold] | resistance index, Dd2 (P. falciparum Dd2 strain; [3]) | resistance index, K1 (P. falciparum K1 strain; [3]) |
| --- | --- | --- | --- | --- | --- | --- | --- |
| O=C(c1cc2cc(C(F)(F)F)ccc2[nH]1)N(Cc1cccnc1)C1CCNCC1 [Compound 6y, N-(Piperidin-4-yl)-N-(pyridin-3-ylmethyl)-5-(trifluoromethyl)-1H-indole-2-carboxamide] | 5 | 7 | greater than 5 fold | – | – | – | – |
| Cc1c(C(=O)N(Cc2cccnc2)CC2CCNC2)[nH]c2ccc(Cl)cc12 (centres unmarked) [Compound 6g, 5-Chloro-3-methyl-N-(3-pyridylmethyl)-N-(pyrrolidin-3-ylmethyl)-1H-indole-2-carboxamide] | 2 | 1.5 | below 5 fold | – | – | – | – |
| O=C(c1cc2cccc(Cl)c2[nH]1)N(Cc1cccnc1)CC1CCNC1 (centres unmarked) [Compound 6c, 7-Chloro-N-(3-pyridylmethyl)-N-(pyrrolidin-3-ylmethyl)-1H-indole-2-carboxamide] | 4 | 2 | below 5 fold | – | – | – | – |
| Cl.O=C(c1cc2cc(Cl)ccc2[nH]1)N(Cc1cccnc1)C1CCNCC1 [Compound 6x, 5-Chloro-N-(piperidin-4-yl)-N-(pyridin-3-ylmethyl)-1H-indole-2-carboxamide hydrochloride] | 12 | 13 | greater than 5 fold | ~5 | 20 | – | – |
| CCN(CC)CCCC(C)Nc1ccnc2cc(Cl)ccc12 (centres unmarked) [chloroquine, reference compound] | – | – | – | 10 | 17 | – | – |
| CN1CCC(CN(Cc2cccnc2)C(=O)c2cc3cc(Cl)ccc3[nH]2)C1 (centres unmarked) [Compound 7a, 5-Chloro-N-[(1-methylpyrrolidin-3-yl)methyl]-N-(pyridin-3-ylmethyl)-1H-indole-2-carboxamide] | 3 | 1.5 | below 5 fold | – | – | – | – |
| CN1CCC(N(Cc2cccnc2)C(=O)c2cc3cc(Cl)ccc3[nH]2)CC1 [Compound 5t, 5-Chloro-N-(1-methylpiperidin-4-yl)-N-(pyridin-3-ylmethyl)-1H-indole-2-carboxamide] | 2 | 1.5 | below 5 fold | – | – | – | – |
| O=C(c1cc2cc(C(F)(F)F)ccc2[nH]1)N(Cc1cccnc1)CC1CCNC1 (centres unmarked) [Compound 6f, N-(3-Pyridylmethyl)-N-(pyrrolidin-3-ylmethyl)-5-(trifluoromethyl)-1H-indole-2-carboxamide] | >25 | 11 | greater than 5 fold | ~8 | 20 | 7 | 20 |
